Laboratory results taken from paper doi:10.1101/2022.11.14.515780.
Results are given in words; binding and its absence hold for the method and conditions named. In cells and extracts the contact can be indirect. Some binding calls cover weakened binding; strength is not graded here.

Amino acid sequences for entries named in this document (tags omitted).
UniProt P34149: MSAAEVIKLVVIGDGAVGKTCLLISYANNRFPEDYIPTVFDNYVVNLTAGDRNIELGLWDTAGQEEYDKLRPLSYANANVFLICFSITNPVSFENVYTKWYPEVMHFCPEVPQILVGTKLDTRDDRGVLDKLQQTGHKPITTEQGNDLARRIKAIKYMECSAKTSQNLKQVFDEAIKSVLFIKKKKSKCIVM

Molecular target: T1, GxcM-RFP (Dictyostelium discoideum) (UniProt Q1ZXN6)
T1 sequence: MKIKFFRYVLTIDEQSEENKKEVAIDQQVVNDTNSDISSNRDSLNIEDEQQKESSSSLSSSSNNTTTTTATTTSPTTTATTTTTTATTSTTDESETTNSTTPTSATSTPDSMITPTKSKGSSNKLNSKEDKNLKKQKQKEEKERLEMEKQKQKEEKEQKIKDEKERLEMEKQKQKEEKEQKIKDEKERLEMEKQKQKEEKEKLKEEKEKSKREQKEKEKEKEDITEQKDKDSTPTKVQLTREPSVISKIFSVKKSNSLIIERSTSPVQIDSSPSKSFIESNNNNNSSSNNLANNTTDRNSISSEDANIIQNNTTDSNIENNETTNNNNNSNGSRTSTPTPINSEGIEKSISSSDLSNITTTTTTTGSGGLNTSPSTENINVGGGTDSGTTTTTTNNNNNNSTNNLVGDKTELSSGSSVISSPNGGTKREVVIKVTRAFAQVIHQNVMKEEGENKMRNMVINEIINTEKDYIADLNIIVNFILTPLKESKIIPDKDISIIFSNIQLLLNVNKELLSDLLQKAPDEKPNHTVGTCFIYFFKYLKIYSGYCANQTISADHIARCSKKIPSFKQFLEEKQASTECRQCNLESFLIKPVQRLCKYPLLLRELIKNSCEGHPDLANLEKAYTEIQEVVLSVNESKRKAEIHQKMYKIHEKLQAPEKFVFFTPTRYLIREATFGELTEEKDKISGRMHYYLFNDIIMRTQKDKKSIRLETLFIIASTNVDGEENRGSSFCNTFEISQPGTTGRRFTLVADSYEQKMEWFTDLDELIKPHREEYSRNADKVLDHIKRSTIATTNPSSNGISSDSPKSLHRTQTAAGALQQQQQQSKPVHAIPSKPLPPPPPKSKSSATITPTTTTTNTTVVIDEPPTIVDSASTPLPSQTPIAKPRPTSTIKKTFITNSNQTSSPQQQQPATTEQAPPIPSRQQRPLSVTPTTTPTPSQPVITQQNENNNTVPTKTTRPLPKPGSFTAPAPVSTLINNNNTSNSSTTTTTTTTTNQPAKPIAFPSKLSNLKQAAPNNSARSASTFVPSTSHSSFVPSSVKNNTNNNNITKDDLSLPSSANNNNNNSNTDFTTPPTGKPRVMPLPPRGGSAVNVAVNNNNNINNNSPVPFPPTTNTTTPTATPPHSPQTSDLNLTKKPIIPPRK
Assay: co-IP

Substance	binding
GFP-Rac1A (from UniProt P34144 1-194)	no binding
GFP-RacC (from UniProt P34149 1-192)	binds
